Results as given in the supplement of paper PMC6078165.

Tested on: MDAMB231
Assay: relative JC-1 red fluorescence (viability) vs pre-drug, coculture with fibroblast (fraction); higher = more viable cancer cells
Method: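 JC-1 labelled TNBC cells cocultured 1:1 (1,500 cells each) with CellTrace Violet stained primary or stromal fibroblasts in 384-well plates in FluoroBrite medium, treated with one of 42 anticancer drugs at 0.1, 1, 10 or 100 uM. JC-1 red fluorescence (mitochondrial integrity in cancer cells only) was read by plate reader every 8 h for 72 h. Values are normalised to each well's pre-drug value. The stock of one drug was tenfold lower, so its dose labels may be too high.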

CN(C)CCOc1ccc(/C(=C(/CCCl)c2ccccc2)c2ccccc2)cc1 [Toremifene]
relative JC-1 red fluorescence
Conditions | 8 h | 16 h | 24 h | 32 h | 40 h | 48 h | 56 h | 64 h | 72 h
0.1 µM, coculture fibroblast: C12385 | 0.7685 | 0.73 | 0.669 | 0.62 | 0.564 | 0.531 | 0.486 | 0.485 | 0.459
0.1 µM, coculture fibroblast: H6013 | 0.891 | 0.819 | 0.767 | 0.757 | 0.718 | 0.693 | 0.679 | 0.652 | 0.614
0.1 µM, coculture fibroblast: H6019 | 0.758 | 0.7052 | 0.6764 | 0.62 | 0.572 | 0.549 | 0.5164 | 0.502 | 0.467
0.1 µM, coculture fibroblast: H6076 | 0.883 | 0.793 | 0.717 | 0.671 | 0.611 | 0.563 | 0.528 | 0.502 | 0.485
0.1 µM, coculture fibroblast: H6231 | 0.92664 | 0.828 | 0.76 | 0.72 | 0.677 | 0.639 | 0.594 | 0.572 | 0.554
0.1 µM, coculture fibroblast: HADF | 0.882 | 0.814 | 0.765 | 0.741 | 0.699 | 0.657 | 0.639 | 0.621 | 0.579
0.1 µM, coculture fibroblast: HCFa | 0.882 | 0.829 | 0.79 | 0.76 | 0.706 | 0.65 | 0.612 | 0.57 | 0.5212
0.1 µM, coculture fibroblast: HCPF | 0.891 | 0.77 | 0.692 | 0.656 | 0.599 | 0.557 | 0.509 | 0.48 | 0.459
0.1 µM, coculture fibroblast: HHSteC | 0.885 | 0.833 | 0.768 | 0.718 | 0.665 | 0.624 | 0.58566 | 0.5612 | 0.5289
0.1 µM, coculture fibroblast: HMF | 0.854 | 0.771 | 0.755 | 0.717 | 0.678 | 0.639 | 0.61 | 0.598 | 0.587
0.1 µM, coculture fibroblast: HPFa | 0.936 | 0.877 | 0.81 | 0.752 | 0.725 | 0.681 | 0.62 | 0.581 | 0.521
0.1 µM, coculture fibroblast: HUF | 0.8681 | 0.7165 | 0.739 | 0.606 | 0.545 | 0.519 | 0.471 | 0.467 | 0.439
0.1 µM, coculture fibroblast: Hs5 | 0.929 | 0.8665 | 0.803 | 0.752 | 0.702 | 0.654 | 0.619 | 0.584 | 0.554
0.1 µM, coculture fibroblast: Hs27A | 0.8578 | 0.775 | 0.735 | 0.7 | 0.643 | 0.567 | 0.567 | 0.541 | 0.496
0.1 µM, coculture fibroblast: Hs343T | 0.861 | 0.719 | 0.652 | 0.6034 | 0.551 | 0.497 | 0.4469 | 0.43 | 0.414
0.1 µM, coculture fibroblast: WS1 | 0.777 | 0.71766 | 0.6785 | 0.617 | 0.561 | 0.528 | 0.478 | 0.468 | 0.441
1 µM, coculture fibroblast: C12385 | 0.792 | 0.792 | 0.638 | 0.659 | 0.603 | 0.56 | 0.511 | 0.501 | 0.473
1 µM, coculture fibroblast: H6013 | 0.9143 | 0.857 | 0.8161 | 0.8013 | 0.746 | 0.70945 | 0.7078 | 0.6802 | 0.6589
1 µM, coculture fibroblast: H6019 | 0.781 | 0.7279 | 0.673 | 0.6674 | 0.615 | 0.574 | 0.528 | 0.499 | 0.463
1 µM, coculture fibroblast: H6076 | 0.877 | 0.814 | 0.785 | 0.773 | 0.747 | 0.7149 | 0.6894 | 0.6851 | 0.677
1 µM, coculture fibroblast: H6231 | 0.938 | 0.855 | 0.786 | 0.752 | 0.705 | 0.672 | 0.63 | 0.617 | 0.59
1 µM, coculture fibroblast: HADF | 0.895 | 0.854 | 0.802 | 0.77 | 0.741 | 0.686 | 0.671 | 0.656 | 0.605
1 µM, coculture fibroblast: HCFa | 0.92313 | 0.8597 | 0.837 | 0.804 | 0.775 | 0.719 | 0.697 | 0.663 | 0.624
1 µM, coculture fibroblast: HCPF | 0.899 | 0.808 | 0.75 | 0.742 | 0.681 | 0.648 | 0.606 | 0.568 | 0.557
1 µM, coculture fibroblast: HHSteC | 0.951 | 0.931 | 0.925 | 0.904 | 0.874 | 0.844 | 0.813 | 0.802 | 0.762
1 µM, coculture fibroblast: HMF | 0.951 | 0.8844 | 0.837 | 0.812 | 0.768 | 0.733 | 0.701 | 0.68 | 0.659
1 µM, coculture fibroblast: HPFa | 0.9704 | 0.9302 | 0.878 | 0.835 | 0.803 | 0.761 | 0.713 | 0.686 | 0.635
1 µM, coculture fibroblast: HUF | 0.899 | 0.822 | 0.808 | 0.7 | 0.628 | 0.593 | 0.54 | 0.526 | 0.492
1 µM, coculture fibroblast: Hs5 | 0.936 | 0.85 | 0.805 | 0.751 | 0.7 | 0.65 | 0.609 | 0.576 | 0.538
1 µM, coculture fibroblast: Hs27A | 0.917 | 0.881 | 0.851 | 0.828 | 0.774 | 0.707 | 0.727 | 0.708 | 0.672
1 µM, coculture fibroblast: Hs343T | 0.9228 | 0.857 | 0.793 | 0.762 | 0.71 | 0.667 | 0.613 | 0.595 | 0.576
1 µM, coculture fibroblast: WS1 | 0.794 | 0.77801 | 0.6431 | 0.645 | 0.598 | 0.57 | 0.527 | 0.506 | 0.475
10 µM, coculture fibroblast: C12385 | 0.751 | 0.8086 | 0.639 | 0.781 | 0.768 | 0.755 | 0.734 | 0.722 | 0.714
10 µM, coculture fibroblast: H6013 | 0.9309 | 0.954 | 0.953 | 0.949 | 0.927 | 0.878 | 0.901 | 0.896 | 0.884
10 µM, coculture fibroblast: H6019 | 0.821 | 0.89 | 0.816 | 0.815 | 0.899 | 0.887 | 0.766 | 0.863 | 0.754
10 µM, coculture fibroblast: H6076 | 0.798 | 0.825 | 0.963 | 0.98949 | 0.9569 | 0.9287 | 0.893 | 0.864 | 0.8427
10 µM, coculture fibroblast: H6231 | 0.94 | 0.918 | 0.829 | 0.867 | 0.877 | 0.821 | 0.858 | 0.85 | 0.843
10 µM, coculture fibroblast: HADF | 0.931 | 0.945 | 0.95 | 0.978 | 0.9771 | 0.9049 | 0.9618 | 0.9735 | 0.955
10 µM, coculture fibroblast: HCFa | 0.955 | 0.9722 | 0.98 | 0.886 | 0.97 | 0.8953 | 0.9116 | 0.8763 | 0.855
10 µM, coculture fibroblast: HCPF | 0.955 | 0.935 | 0.924 | 0.924 | 0.911 | 0.889 | 0.891 | 0.864 | 0.877
10 µM, coculture fibroblast: HHSteC | 0.909 | 0.87 | 0.836 | 0.928 | 0.897 | 0.845 | 0.834 | 0.876 | 0.945
10 µM, coculture fibroblast: HMF | 0.879 | 0.936 | 0.97 | 0.949 | 0.924 | 0.898 | 0.871 | 0.85 | 0.848
10 µM, coculture fibroblast: HPFa | 0.93 | 0.954 | 0.952 | 0.9365 | 0.957 | 0.915 | 0.922 | 0.922 | 0.907
10 µM, coculture fibroblast: HUF | 0.856 | 0.793 | 0.794 | 0.737 | 0.688 | 0.659 | 0.624 | 0.627 | 0.599
10 µM, coculture fibroblast: Hs5 | 0.9448 | 0.931 | 0.906 | 0.904 | 0.877 | 0.849 | 0.83 | 0.812 | 0.811
10 µM, coculture fibroblast: Hs27A | 0.935 | 0.915 | 0.919 | 0.948 | 0.918 | 0.797 | 0.881 | 0.886 | 0.863
10 µM, coculture fibroblast: Hs343T | 0.852 | 0.871 | 0.868 | 0.922 | 0.891 | 0.879 | 0.879 | 0.8813 | 0.859
10 µM, coculture fibroblast: WS1 | 0.7832 | 0.8494 | 0.664 | 0.843 | 0.879 | 0.891 | 0.891 | 0.885 | 0.87
100 µM, coculture fibroblast: C12385 | 0.498 | 0.311 | 0.324 | 0.213 | 0.147 | 0.112 | 0.0806 | 0.0648 | 0.0391
100 µM, coculture fibroblast: H6013 | 0.532 | 0.287 | 0.263 | 0.236 | 0.201 | 0.188 | 0.152 | 0.134 | 0.0922
100 µM, coculture fibroblast: H6019 | 0.509 | 0.285 | 0.307 | 0.23 | 0.195 | 0.17 | 0.14 | 0.13 | 0.0982
100 µM, coculture fibroblast: H6076 | 0.534 | 0.357 | 0.349 | 0.323 | 0.28 | 0.24 | 0.206 | 0.181 | 0.148
100 µM, coculture fibroblast: H6231 | 0.54758 | 0.389 | 0.321 | 0.296 | 0.262 | 0.233 | 0.195 | 0.181 | 0.152
100 µM, coculture fibroblast: HADF | 0.52 | 0.287 | 0.252 | 0.22 | 0.19 | 0.174 | 0.136 | 0.121 | 0.0773
100 µM, coculture fibroblast: HCFa | 0.624 | 0.367 | 0.354 | 0.323 | 0.298 | 0.28 | 0.245 | 0.225 | 0.183
100 µM, coculture fibroblast: HCPF | 0.48 | 0.352 | 0.31 | 0.295 | 0.25 | 0.216 | 0.177 | 0.148 | 0.123
100 µM, coculture fibroblast: HHSteC | 0.52 | 0.332 | 0.318 | 0.273 | 0.24 | 0.225 | 0.181 | 0.163 | 0.118
100 µM, coculture fibroblast: HMF | 0.518 | 0.316 | 0.273 | 0.247 | 0.211 | 0.176 | 0.138 | 0.118 | 0.0912
100 µM, coculture fibroblast: HPFa | 0.667 | 0.424 | 0.402 | 0.362 | 0.341 | 0.323 | 0.272 | 0.249 | 0.208
100 µM, coculture fibroblast: HUF | 0.636 | 0.408 | 0.434 | 0.308 | 0.255 | 0.232 | 0.184 | 0.169 | 0.136
100 µM, coculture fibroblast: Hs5 | 0.414 | 0.3128 | 0.311 | 0.272 | 0.24 | 0.189 | 0.156 | 0.123 | 0.0939
100 µM, coculture fibroblast: Hs27A | 0.621 | 0.389 | 0.327 | 0.293 | 0.258 | 0.248 | 0.21 | 0.195 | 0.152
100 µM, coculture fibroblast: Hs343T | 0.507 | 0.311 | 0.296 | 0.279 | 0.239 | 0.197 | 0.163 | 0.139 | 0.107
100 µM, coculture fibroblast: WS1 | 0.492 | 0.314 | 0.379 | 0.267 | 0.231 | 0.201 | 0.17 | 0.154 | 0.124

The reference is the same well before dosing, and untreated signal decays as well.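 Fibroblast labels name human fibroblasts: mostly primary ones from tissues such as uterus (C12385, HUF), lung (H6013), bone (Hs27A), adrenal (HADF) and skin (WS1), plus mammary HMF and breast cancer-associated Hs343T. The cancer cells are basal-like or mesenchymal-like triple-negative breast cancer lines. The paper calls a changed response a hit when it shifts by more than 3x the replicate standard deviation. The tissue of the other fibroblasts is not given here.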
